Taken from: PubChem BioAssay AID1671195 (Yale University, 2021)

Purpose: 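Genes whose knockdown alters LDL uptake in liver cancer cells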 (primary screen)
Cell system: human Huh7 hepatoma cells
Knock-down reagent: siRNA pool against human genes, 18 nM
Duration: about 2 to 2.5 days of knockdown, then 8 h LDL uptake
Conditions: DiI-labelled LDL at 30 µg/ml for 8 h, in lipoprotein-deficient serum medium
Measured: 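Per-cell DiI-LDL intensity by automated imaging; well means scaled to the plate median and given as a robust z-score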
Direction: robust z-score: higher = more LDL uptake after knockdown
Call rule: 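Active when two or more replicates show a robust z-score above 2 or below -2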
This is an unselected part of about 22,000 reagents tested. Of all reagents, about 1,510 (6.9%) got an active call. 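Active includes knockdowns raising or lowering LDL uptake; positive z-scores mean more uptake, negative mean less.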 Entries without a mark were called inactive.

gene symbol | robust z-score, replicate 1 | robust z-score, replicate 2 | robust z-score, replicate 3
LOC441534 (retired record) | 1.63 | 0.184 | 0.403
KIF3A | 0.309 | 0.382 | -0.497
ZNF687 | -0.713 | -1.13 | -0.692
NR1I3 | 0.49 | -0.201 | 0.645
DNAJC4 | -0.0356 | -0.0951 | -0.174
CUTA | -0.614 | -1.17 | -0.56
H4C15 | -1.03 | -1.15 | -1.49
ANO2 | -0.0796 | -0.894 | -0.65
RPA4 | 0.768 | 0.0119 | 1.02
EFCAB6 | -0.703 | -0.577 | -0.158
DAZL | -1.01 | -0.233 | -0.932
IL15RA | 1.54 | 1.11 | 0.53
CLDN3 | 1.18 | 0.74 | 0.795
ZNF280D | 0.691 | 1.95 | 1.2
CNIH2 | -0.648 | -0.465 | -0.524
RABGGTB | 2.07 | 1.26 | 0.927
WDTC1 | 0.758 | 0.821 | 1.03
NR0B1 | -0.834 | 1 | -0.701
LOC283586 (retired record) | 0.417 | 0.243 | 1.22
HS3ST5 | -0.967 | -1.21 | -1.64
TSC22D4 | -1.31 | -0.956 | -0.739
C1orf167 | -1.21 | -0.886 | -1.06
TRANK1 | -0.489 | 1.12 | 1.69
BACE2 | -2.18 (active) | -1.7 | -1.91
PRDM1 | 1.07 | 1.16 | 0.826
TBC1D8B | 0.548 | 0.314 | 0.676
CEP85 | -0.53 | -0.144 | -0.722
SLC22A9 | 0.797 | 0.41 | 1.11
TMEM215 | 0.292 | -0.837 | -0.141
FRMD3 | 2.22 (active) | 2.52 | 2.73
LARP4B | 3.3 (active) | 1.81 | 2.44
ZNF597 | -1.89 | -2.31 | -0.374
GLRX3 | -0.745 | -0.405 | -0.0115
ALKBH7 | -0.235 | -0.0324 | -0.123
TFEC | 0.798 | 0.841 | 0.511
KLHL31 | 1.18 | 0.785 | 1.11
ATP8B5P | 1.84 | 1.65 | 1.22
LOC399898 (retired record) | 2.18 (active) | 2.12 | 2.13
NDUFA7 | 0.747 | -0.773 | -0.707
CENPI | 1.13 | -0.51 | 0.435
TJP1 | 0.276 | 0.567 | 0.129
LOC440417 (retired record) | -0.988 | -1.21 | -1.54
LINC01785 | -0.000314 | -0.0496 | 0.0394
C8orf16 | -0.796 | -0.745 | -0.428
GEN1 | 0.752 | 0.538 | 1.27
NR2C2 | 0.469 | 0.716 | -0.0397
RPL10P14 | 0.905 | 0.904 | 0.613
CRHR1 | -1.07 | -0.696 | -0.674
PLEKHB1 | 0.46 | 0.162 | 1.46
NLRC3 | -0.00259 | 0.344 | 1.12
PIAS1 | 1.48 | 1.35 | 1.33
RTRAF | -0.934 | 2.04 | 0.241
RHOV | -0.826 | -0.928 | -1.3
ZBTB2 | -0.495 | -0.619 | -0.929
KRIT1 | -0.582 | -0.647 | -1.02
LYPD4 | 0.537 | 0.751 | 0.508
LRPAP1 | -0.576 | 0.637 | -0.758
OFD1P16Y | -0.508 | -0.33 | 0.0544
URGCP | 0.985 | 0.447 | 0.629
ZNF490 | -1.33 | -1.58 | -0.862
CD160 | 1.15 | 0.0555 | 1.44
COASY | -0.0612 | -0.471 | 0.835
ZMYM3 | -0.595 | -1.1 | -2.01
CCDC88A | -0.377 | 1.45 | -0.456
PACSIN2 | -0.712 | -0.463 | -0.896
NUP42 | 1.28 | 0.1 | -0.131
TKTL1 | 0.0744 | 0.422 | 0.288
VSIR | -1.13 | -0.641 | -0.479

Looked up above:
GLRX3, robust z-score, replicate 1 = -0.745
Under “robust z-score, replicate 1”, ANO2 shows -0.0796
Entry of CD160 in “robust z-score, replicate 1”: 1.15
Under “robust z-score, replicate 3”, CEP85 shows -0.722
Value of C8orf16 in “robust z-score, replicate 1”: -0.796
